Record: PubChem BioAssay AID1259424 (University of Nebraska Medical Center, 2018)
Screen: 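Find knockdowns that reproduce the expression shifts seen after KSR1 loss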 (primary screen). System: human HCT116 colon cancer cells. Reagents: siRNA pool against human genes, 50 nM. Measured: 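Six signature mRNAs by branched-DNA multiplex assay, scaled to two housekeeping genes and non-targeting median, log2; matched to mean KSR1 knockdown profile by Pearson correlation and euclidean distance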. Scale: mean correlation with KSR1 profile: higher = expression change more like KSR1 knockdown; mean distance from KSR1 profile: higher = expression change less like KSR1 knockdown.
The whole screen tested about 14,000 reagents; below is an unselected part. 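Higher correlation or smaller distance means closer resemblance to KSR1 loss; control wells, including KSR1 knockdowns, recur on many plates.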 A reagent listed more than once was tested more than once; the source does not tell the runs apart. Further read-outs or replicates are left out here. Reagent sequences are not shown. Not given: the time to read-out.

PI4K2A (phosphatidylinositol 4-kinase type 2 alpha) | mean correlation with KSR1 profile = 0.698; mean distance from KSR1 profile = 1.06
MAP10 (microtubule associated protein 10) | mean correlation with KSR1 profile = 0.00819; mean distance from KSR1 profile = 1.31
MICA (MHC class I polypeptide-related sequence A) | mean correlation with KSR1 profile = 0.733; mean distance from KSR1 profile = 1.26
CCL17 (C-C motif chemokine ligand 17) | mean correlation with KSR1 profile = 0.433; mean distance from KSR1 profile = 2.93
SLC28A1 | mean correlation with KSR1 profile = 0.38; mean distance from KSR1 profile = 1.86
PRPSAP2 (phosphoribosyl pyrophosphate synthetase associated protein 2) | mean correlation with KSR1 profile = 0.159; mean distance from KSR1 profile = 4.07
MCM3AP | mean correlation with KSR1 profile = 0.669; mean distance from KSR1 profile = 1.8
SFRP5 (secreted frizzled related protein 5) | mean correlation with KSR1 profile = 0.653; mean distance from KSR1 profile = 3.75
TRAPPC6A (trafficking protein particle complex subunit 6A) | mean correlation with KSR1 profile = -0.46; mean distance from KSR1 profile = 2.4
NMI (N-myc and STAT interactor) | mean correlation with KSR1 profile = -0.174; mean distance from KSR1 profile = 2.41
CA6 (carbonic anhydrase 6) | mean correlation with KSR1 profile = -0.536; mean distance from KSR1 profile = 3.7
NDC1 (NDC1 transmembrane nucleoporin) | mean correlation with KSR1 profile = -0.0482; mean distance from KSR1 profile = 1.19
CD3E (CD3 epsilon subunit of T-cell receptor complex) | mean correlation with KSR1 profile = 0.185; mean distance from KSR1 profile = 2.54
CD3E (CD3 epsilon subunit of T-cell receptor complex) | mean correlation with KSR1 profile = 0.792; mean distance from KSR1 profile = 1.79
CHRNG (cholinergic receptor nicotinic gamma subunit) | mean correlation with KSR1 profile = 0.106; mean distance from KSR1 profile = 1.66
RPLP0 (ribosomal protein lateral stalk subunit P0) | mean correlation with KSR1 profile = -0.246; mean distance from KSR1 profile = 1.22
CABP2 (calcium binding protein 2) | mean correlation with KSR1 profile = 0.347; mean distance from KSR1 profile = 1.51
HLA-DQB2 (major histocompatibility complex, class II, DQ beta 2) | mean correlation with KSR1 profile = 0.628; mean distance from KSR1 profile = 1.2
KCNE1 | mean correlation with KSR1 profile = -0.408; mean distance from KSR1 profile = 1.75
CHLSN (cholesin) | mean correlation with KSR1 profile = 0.745; mean distance from KSR1 profile = 2.3
PYROXD1 (pyridine nucleotide-disulphide oxidoreductase domain 1) | mean correlation with KSR1 profile = 0.589; mean distance from KSR1 profile = 1.96
GCNT2 (glucosaminyl (N-acetyl) transferase 2 (I blood group)) | mean correlation with KSR1 profile = -0.41; mean distance from KSR1 profile = 3.44
GATA6 (GATA binding protein 6) | mean correlation with KSR1 profile = 0.198; mean distance from KSR1 profile = 1.91
ZWILCH (zwilch kinetochore protein) | mean correlation with KSR1 profile = -0.564; mean distance from KSR1 profile = 2.8
TIMM50 (translocase of inner mitochondrial membrane 50) | mean correlation with KSR1 profile = 0.437; mean distance from KSR1 profile = 1.02
PEX14 (peroxisomal biogenesis factor 14) | mean correlation with KSR1 profile = 0.0212; mean distance from KSR1 profile = 1.8
SKP2 (S-phase kinase associated protein 2) | mean correlation with KSR1 profile = -0.41; mean distance from KSR1 profile = 3.47
GHDC (GH3 domain containing) | mean correlation with KSR1 profile = -0.0519; mean distance from KSR1 profile = 1.85
LINC00312 (long independently transcribed non-coding RNA 312) | mean correlation with KSR1 profile = 0.22; mean distance from KSR1 profile = 1.49
SHLD2 (shieldin complex subunit 2) | mean correlation with KSR1 profile = 0.738; mean distance from KSR1 profile = 1.91
PDGFA (platelet derived growth factor subunit A) | mean correlation with KSR1 profile = -0.126; mean distance from KSR1 profile = 4.49
HEATR6 (HEAT repeat containing 6) | mean correlation with KSR1 profile = 0.148; mean distance from KSR1 profile = 1.96
CALML5 (calmodulin like 5) | mean correlation with KSR1 profile = 0.309; mean distance from KSR1 profile = 1.96
LTB4R (leukotriene B4 receptor) | mean correlation with KSR1 profile = 0.649; mean distance from KSR1 profile = 1.19
TSPY2 (testis specific protein Y-linked 2) | mean correlation with KSR1 profile = -0.415; mean distance from KSR1 profile = 2.75
ETS1 (ETS proto-oncogene 1, transcription factor) | mean correlation with KSR1 profile = 0.76; mean distance from KSR1 profile = 1.81

Part of the list above, reformatted:
| gene symbol | mean correlation with KSR1 profile | mean distance from KSR1 profile |
| --- | --- | --- |
| LTB4R (leukotriene B4 receptor) | 0.649 | 1.19 |
| TSPY2 (testis specific protein Y-linked 2) | -0.415 | 2.75 |
